Reference: PubChem BioAssay AID2685 (National Center for Advancing Translational Sciences (NCATS), 2010)
Out of some 320,000 compounds screened, about 2,100 (0.66%) were called active. Inconclusive results, whose numbers are uncertain, are shown with a selection of clear calls. Calls come from the whole dose curve; as a rule, active = well fitted inhibition curve with a large enough effect in the signal ratio, with a control signal flat (not every such curve was filed as active); inconclusive = small, poorly fitted or top-dose-only effect, or effect the other way, or a change in a side signal; inactive = flat fitted curve, though single readings scatter; the % refers to the signal ratio. Where the call is inconclusive, the potency comes from a doubtful curve fit.

test: qHTS Assay for Lipid Storage Modulators in Drosophila S3 Cells; conditions: BODIPY lipid droplet fluorescence, 18-24 h, cells fed with added oleic acid; lipid storage change, negative = inhibition: at 46.1 µM (top of the series) unless noted
How it was run: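 Drosophila S3 cells loaded with oleic acid (400 uM, as added) and compounds at several concentrations; lipid droplets imaged by 488-nm laser-scanning cytometry, 500–530 nm intensity and object ratio to cell channel. Percent activity normalized to 20 uM Triacsin C.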
% is set by controls: 0 for no effect and ±100 for the full control effect; potency is the fitted concentration of half-maximal effect.

SMILES | lipid storage change, negative = inhibition | Potency
O=C(NCCCO)c1nc2ccccc2s1 | inconclusive: -7.56% | –
CN(C)CCCN1C(=O)c2oc3ccccc3c(=O)c2C1c1cccs1 (centres undefined) | inconclusive: 4.15% | –
CCc1ccc(N(CC(=O)NC(C)(C)CC)C(=O)CCC(=O)Nc2nccs2)cc1 | inconclusive: -34.1% | –
O=C(Nc1ccccc1C(=O)O)c1cccc(C(=O)Nc2ccccc2C(=O)O)c1 | inconclusive: 351% | –
CCn1cc(C(=O)NC2CCCCCC2)c2cc(OC)c(OC)cc2c1=O | inconclusive: 62.2% | –
CC(C)c1ccc2[nH]c3c(c2c1)CCCC3=O | inconclusive: -18.6% | –
COCCn1c(=NC(=O)c2cc(-c3cccs3)nc3ccccc23)sc2cc(S(N)(=O)=O)ccc21 | inconclusive: 17.8% | –
CCN1CCN(CCCNC(=O)c2ccc3c(c2)NC(=O)c2ccccc2S3)CC1 | inconclusive: -7.7% | –
CC(C)Cc1nnc(NC(=O)c2cc(S(=O)(=O)N(C)C)ccc2N2CCCC2)s1 | – | inconclusive: 29.1 µM [rising, partial curve]
CC(OC(=O)c1nc(Cl)ccc1Cl)C(=O)Nc1ccccc1F (centres undefined) | inactive | –
COc1ccc(Br)cc1CN1C(=O)NC2(CCCCCC2)C1=O | inconclusive: 237% | –
O=C(O)CCN1C(=O)/C(=C\c2ccc(-c3nc4ccccc4s3)o2)SC1=S | – | inconclusive: 29.1 µM [falling, single point]
CCOc1ccc(OCCC(=O)NNC(=O)c2cc(C)oc2C)cc1 | – | inconclusive: 0.0046 µM [activator, full curve, poor fit]
Cc1cc(Cl)cc(Cl)c1OCCCCN(C)C | – | inconclusive: 20.6 µM [activator, single point]
O=S(=O)(NCc1cccs1)c1cccc2cccnc12 | – | inconclusive: 1.3 µM [falling, full curve, poor fit]
c1ccc(Nc2nnc(-c3cccc4ccccc34)o2)cc1 | inconclusive: -3.57% | –
COc1ccc(/C=N/NC(=O)CCCC(=O)NC2CCCCC2)cc1 | – | inconclusive: 0.206 µM [activator, full curve, poor fit]
COc1ccc(C2(CCN)CC(C)N(C)CC2C)cc1 (centres undefined) | inconclusive: 4.11% | –
C/C(=N\NC(=O)c1cccc(Br)c1)c1ccc(Br)cc1 | inconclusive: -37.9% | –
CC(C)NC(=O)CSc1nc(Cc2ccccc2)nc2ccccc12 | – | inconclusive: 6.51 µM [activator, single point]
O=C1NC2(CCCCC2)N=C1c1ccc(F)cc1 | inconclusive: 22.3% | –
COC(=O)c1ccc(C(=O)OC)c(NC(=S)N2CCCC2)c1 | inconclusive: 7.7% | –
CN1CCN(CC(=O)Nc2ccc([N+](=O)[O-])cc2Br)CC1 | inconclusive: 15.3% | –
CCOC(=O)CNC(=O)C1CCN(S(=O)(=O)c2ccc(-c3nn[nH]n3)cc2)CC1 | – | inconclusive: 29.1 µM [activator, single point]
COc1ccc(C)cc1NC(=O)CN1C(=O)c2ccccc2S1(=O)=O | inconclusive: -3.89% | –
Cn1nnnc1SCC(=O)N1CCc2ccccc2C1 | – | inconclusive: 6.51 µM [falling, single point]
C=CCNc1oc(-c2cccs2)nc1C#N | – | inconclusive: 29.1 µM [rising, single point]

SMILES | lipid storage change, negative = inhibition | Potency
CSc1nnc(Nc2ccccc2C)s1 | inconclusive: 137% | –
CCC(C(=O)NC1CCCC1)N(C(=O)Cn1nnc(-c2ccc(C)o2)n1)c1ccc(OC)cc1 (centres undefined) | inconclusive: 15.9% | –
CC(C)CC(NC(=O)CCl)c1ccccc1 (centres undefined) | – | inconclusive: 3.26 µM [falling, full curve]
Cc1ccccc1C(=O)NC1CCN(C(=O)NCc2ccccc2)CC1 | inconclusive: 126% | –
O=C(NCC1CCCO1)c1cc2c([nH]c3ccccc32)c(-c2ccc(F)cc2)n1 (centres undefined) | inconclusive: -86.4% | –
CCOc1cc(/C=C2/NC(=S)NC2=O)ccc1OCc1ccc([N+](=O)[O-])cc1 | inconclusive: -29% | –
COCCNC(=O)CSc1nc2cc3c(cc2c(=O)n1Cc1ccco1)OCO3 | – | inconclusive: 0.411 µM [activator, full curve]
O=C1c2ccccc2C(=O)N1c1cc([N+](=O)[O-])ccn1 | inconclusive: 2.35% | –
COc1ccc(CNC(=O)CNC(c2ccccc2)c2ccccc2)cc1OC | inconclusive: 22.5% | –
CCOc1ccc(NC(=O)CCC(=O)c2ccc(F)cc2)cc1 | – | inconclusive: 3.66 µM [activator, full curve]
CCOC(=O)c1cccc2c(=O)c(C(=O)c3ccc(Cl)cc3)c(C(=O)OC)[nH]c12 | inconclusive: -7.48% | –
NC1=NC(=Nc2cccc(S(=O)(=O)N3CCOCC3)c2)c2ccccc21 | inconclusive: 32.5% | –
Cc1cccc(C)c1NC(=O)CNC(=O)c1ccc2ccccc2n1 | – | inconclusive: 0.0046 µM [activator, full curve, poor fit]
O=c1cnnc(NCc2ccccc2)[nH]1 | inconclusive: -50.4% | –
COc1ccc(CCNC(=O)CCc2ccc(S(=O)(=O)NC(C)C)cc2)cc1OC | inconclusive: 2.95% | –
COc1ccc(S(=O)(=O)N2CCOCC2)cc1NC(=O)CSc1nnc2ccccn12 | inconclusive: 26.6% | –
N#Cc1ccc(OCc2nnc(-c3ccc([N+](=O)[O-])cc3)o2)cc1 | inconclusive: 44.9% | –
CC1=C(C(=O)Nc2ccc(C)cn2)C(c2cnn(C)c2)C2=C(CCCC2=O)N1 (centres undefined) | inconclusive: -6.51% | –
COC(=O)C1CCN(C(=O)/C=C/c2ccccc2)CC1 | inconclusive: 14.1% | –
CCOP(=O)(OCC)c1nc(-c2ccc(Cl)cc2Cl)oc1N1CCOCC1 | inconclusive: 20.6% | –
COc1ccc(-c2cc3c(=O)n(CC(=O)N4CCCC4)ncn3n2)cc1 | – | inconclusive: 29.1 µM [falling, single point]
CCCCN(Cc1cccs1)S(=O)(=O)c1ccc(-c2ccc(=O)[nH]n2)s1 | – | inconclusive: 29.1 µM [falling, single point]
COc1ccc(-c2noc(CN(C)C(=O)c3ccoc3C)n2)cc1OC | – | inconclusive: 1.16 µM [activator, single point]
CC1(C)CC(N2CCCC2)=CC(=[N+]2CCCC2)C1 | – | inconclusive: 29.1 µM [cytotoxic, single point]
CCN1C(=O)[C@@H]2[C@H](C1=O)[C@@H]1C(=O)Nc3ccccc3C(=O)N1[C@@H]2c1ccc(OC)cc1 | inconclusive: -0.128% | –
O=c1c([N+](=O)[O-])c(N2CCOCC2)c2ccccc2n1-c1ccccc1 | inactive | –
c1ccc(-c2cn(-c3ccccc3)c3[n+]2CCCS3)cc1 | inconclusive: -37.4% | –

Some of these compounds in order of SMILES length, descending:
SMILES | lipid storage change, negative = inhibition | Potency
O=C(NCC1CCCO1)c1cc2c([nH]c3ccccc32)c(-c2ccc(F)cc2)n1 (centres undefined) | inconclusive: -86.4% | –
CCOP(=O)(OCC)c1nc(-c2ccc(Cl)cc2Cl)oc1N1CCOCC1 | inconclusive: 20.6% | –
O=C1c2ccccc2C(=O)N1c1cc([N+](=O)[O-])ccn1 | inconclusive: 2.35% | –
CSc1nnc(Nc2ccccc2C)s1 | inconclusive: 137% | –

Carrying on.

SMILES | lipid storage change, negative = inhibition | Potency
O=c1oc(-c2cccs2)nc2sc3c(c12)CCC3 | inactive | –
CCCNC(=O)CC(NS(=O)(=O)c1ccc(OC)cc1)c1ccco1 (centres undefined) | inconclusive: 0.0908% | –
Cc1c(NC(=O)C(C)N2C(=O)C3CCCCC3C2=O)c(=O)n(-c2ccccc2)n1C (centres undefined) | inactive | –
CCN(CC)CCCNC(=O)c1ccccc1C | inconclusive: 96.2% | –
COC(CNC(=O)CCCn1nnnc1CN1CCOCC1)c1cccs1 (centres undefined) | – | inconclusive: 0.461 µM [activator, single point]
CCOc1ccc(-c2cc(N3C(=O)Nc4ccccc4N3O)n[nH]2)cc1 | inconclusive: 49% | –
COc1ccc(C(C)=O)c(Oc2ccc(S(=O)(=O)N3CCOCC3)cn2)c1 | inconclusive: 12% | –
COC(=O)C1=C(C)NC(=O)C1(NS(=O)(=O)c1ccc(NC(C)=O)cc1)C(F)(F)F (centres undefined) | inconclusive: 48.7% | –
COc1ccc(CN2CCNC(=O)C2CC(=O)NC2CCOCC2)cc1C (centres undefined) | inconclusive: 60.7% | –
COc1ccc(NC(=O)Cn2c(CCC(=O)O)ccc2-c2ccccc2)cc1 | – | inconclusive: 0.103 µM [falling, full curve, poor fit]
COc1ccccc1C1SCCN1S(C)(=O)=O (centres undefined) | inconclusive: 10.9% [at 9.22 µM] | –
Fc1cccc(CCN2C(=S)NC[C@@H]2CC2CCCCC2)c1 | inconclusive: -27% | –
COc1ccc(S(=O)(=O)N2CCC(C(=O)Oc3c(OC)cccc3OC)CC2)cc1OC | – | inconclusive: 4.11 µM [falling, single point]
Cc1ccc(C)c(N(C)C(=O)COc2cc(=O)n(C)c3ccccc23)c1 | inconclusive: -16.2% | –
COc1ccccc1CNC(=O)COc1ccc(C)cc1 | inconclusive: 55.8% | –
CC1=CCC(/C=N\Nc2nnc3c(n2)[nH]c2ccccc23)CC1 (centres undefined) | inconclusive: 31.3% | –
O=[N+]([O-])c1ccc(Cl)cc1N/N=C/c1ccncc1 | inconclusive: 13% | –
CCCCN(C)C(=O)C(Cc1ccccc1)NS(=O)(=O)c1ccc2c(c1)CCC(=O)N2 (centres undefined) | inconclusive: -28.3% | –
O=C(CCC1CCCC1)N1CCN(S(=O)(=O)c2ccc(Br)cc2)CC1 | – | inconclusive: 14.6 µM [activator, single point]
O=C(Nc1cccc(S(=O)(=O)N2CCOCC2)c1)C(c1ccccc1)N1CCCCC1 (centres undefined) | inconclusive: 2.49% | –
Cc1[nH]c(=O)[nH]c(=O)c1S(=O)(=O)NCCc1ccc(S(N)(=O)=O)cc1 | – | inconclusive: 29.1 µM [falling, single point]
COc1cc(C(=O)NCCN2CCOCC2)cc(OC)c1OC | – | inconclusive: 29.1 µM [falling, single point]
CCCOC(=O)Cn1c(=O)c2cc3c(=O)n(CC(=O)OCCC)c(=O)c3cc2c1=O | inactive | –
O=C(NCc1cccc(F)c1F)C1CCC(=O)N(C2CC2)C1 (centres undefined) | inconclusive: -5.04% | –
Cc1ccc([N+](=O)[O-])cc1N(CC(=O)NC1CCCC1)S(C)(=O)=O | inconclusive: 10.8% | –
